Values from PubChem BioAssay AID1224826 (NIAID, 2016).
This is a random part of about 17,000 deposited reagents. About 1,110 of all reagents (6.6%) count as active. 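Active means lowered or raised reporter signal; replicate intensities are raw and not normalised per plate.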 Further read-outs or replicates are left out here. No sequences are given here.

Aim: 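Regulators of Tlr4 signalling leading to Tnf-alpha expression in macrophages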 (primary screen)
System: RAW264.7 G9 macrophages from mouse bearing reporters for p65 (GFP) and the Tnf promoter (mCherry)
Reagents: siRNA pool against mouse genes, 100 nM
Time to read-out: 16 h of LPS stimulation, after 2 days of siRNA transfection
Challenge: bacterial lipopolysaccharide (Salmonella minnesota R595), 10 ng/ml
Read-out: 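Nuclear mCherry signal of the Tnf promoter reporter measured by imaging after background removal, scaled to each plate median and turned into robust z-scores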
Reading the numbers: Tnf reporter robust z-score: higher = stronger Tnf promoter reporter signal after LPS
Active means: 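Called active when robust z-score is at most -1.3, matching the median of the Tlr4 knock-down control, or over 3; control wells and wells with under 50 cells never active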
Meaning of the calls: active = Tnf reporter clearly lowered or raised; inactive = no clear change in Tnf reporter

Prl8a6: Tnf reporter robust z-score = 0.2; fewer than 50 cells in well = enough cells in well; call = inactive
Nmur1: Tnf reporter robust z-score = -0.3; fewer than 50 cells in well = enough cells in well; call = inactive
Eef1akmt2: fewer than 50 cells in well = fewer than 50 cells per well; well left out of calls; call = inactive
Adipoq: Tnf reporter robust z-score = 2.9; fewer than 50 cells in well = enough cells in well; call = inactive
Anapc10: Tnf reporter robust z-score = -0.38; fewer than 50 cells in well = enough cells in well; call = inactive
Fen1: Tnf reporter robust z-score = -0.63; fewer than 50 cells in well = enough cells in well; call = inactive
Cnih1: Tnf reporter robust z-score = 0.01; fewer than 50 cells in well = enough cells in well; call = inactive
Htr1d: Tnf reporter robust z-score = -0.13; fewer than 50 cells in well = enough cells in well; call = inactive
Oma1: fewer than 50 cells in well = fewer than 50 cells per well; well left out of calls; call = inactive
Trir: Tnf reporter robust z-score = 0.26; fewer than 50 cells in well = enough cells in well; call = inactive
Or5t5: Tnf reporter robust z-score = 0.13; fewer than 50 cells in well = enough cells in well; call = inactive
Spaca7: fewer than 50 cells in well = fewer than 50 cells per well; well left out of calls; call = inactive
Tbc1d8: Tnf reporter robust z-score = 0.29; fewer than 50 cells in well = enough cells in well; call = inactive
Atp6v1b1: Tnf reporter robust z-score = 1.15; fewer than 50 cells in well = enough cells in well; call = inactive

Looked up above:
Value of Trir under “Tnf reporter robust z-score”: 0.26
Under “call”, Fen1 is entered as inactive

Additional results follow.
Zfp764: Tnf reporter robust z-score = -0.93; fewer than 50 cells in well = enough cells in well; call = inactive
Zfp354a: Tnf reporter robust z-score = -0.82; fewer than 50 cells in well = enough cells in well; call = inactive
Kctd5: Tnf reporter robust z-score = 0.63; fewer than 50 cells in well = enough cells in well; call = inactive
Zfp263: Tnf reporter robust z-score = -1.05; fewer than 50 cells in well = enough cells in well; call = inactive
Ntsr2: Tnf reporter robust z-score = 1.77; fewer than 50 cells in well = enough cells in well; call = inactive
Mtln: Tnf reporter robust z-score = -1.14; fewer than 50 cells in well = enough cells in well; call = inactive
Krt31: Tnf reporter robust z-score = 0.08; fewer than 50 cells in well = enough cells in well; call = inactive
